# Source: PubChem BioAssay AID504744 (Drosophila RNAi Screening Center, 2011)
# Screen: 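Find genes whose loss alters insulin-driven dAkt phosphorylation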 (primary screen)
# System: Drosophila Kc167 cells
# Reagent: long dsRNA against Drosophila genes, 250 ng dsRNA per well of a 384-well plate
# Timing: 3 days of knock-down, then overnight serum-free starvation before stimulation
# Treatment: bovine insulin at 387 nM for 10 minutes after 12 h without serum
# Measurement: 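Per-well phospho-dAkt level from an in-cell fluorescent antibody stain, divided by a DNA-dye signal; log2 residuals turned into z-scores that take cell number into account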
# Rule for the call: 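Under insulin, a gene counts as a hit if the average z-score of two replicates lies above 2.5 or below -2.5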
# The deposit covers about 23,000 reagents; shown is a random part of those that have a named target and a result. Of all reagents, 98 (0.43%) got an active call. 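Only hit calls are given; the phospho-dAkt signals, z-scores and hit direction were not deposited.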 Reagents against one gene are numbered here. Names joined by + are all predicted targets of the reagent.
gene,reagent,call
CG6833,1,inactive
"Polr2H (RNA polymerase II, I and III subunit H)",1,inactive
CG31551,1,inactive
CG31551,2,inactive
Drsl2 (Drosomycin-like 2),1,inactive
CG9822,1,inactive
CG12464,1,inactive
CG10097 + CG10096,1,inactive
CG10097 + CG10096,2,inactive
CG13376,1,inactive
Cyt-b5 (Cytochrome b5),1,inactive
CG13793,1,inactive
mRRF1 (mitochondrial ribosome recycling factor 1),1,inactive
CG13021,1,inactive
CG15152,1,inactive
IntS14 (Integrator 14),1,inactive
CG1271,1,inactive
CG12934,1,inactive
pbl (pebble),1,inactive
CG13841,1,inactive
CG3927,1,inactive
CG3927,2,inactive
CG42726 + CG42727,1,inactive
gcm (glial cells missing),1,inactive
"AspRS-m (Aspartyl-tRNA synthetase, mitochondrial)",1,inactive
"Pp1-Y2 (Protein phosphatase 1, Y-linked 2)",1,inactive
CG13678,1,inactive
raskol,1,inactive
raskol,2,inactive
raskol,3,inactive
raskol,4,inactive
raskol,5,inactive
Tango9 (Transport and Golgi organization 9),1,inactive
CG12398,1,inactive
mip120 (Myb-interacting protein 120),1,inactive
hook,1,inactive
Ir7c (Ionotropic receptor 7c),1,inactive
lectin-21Cb,1,inactive
RpL22-like (Ribosomal protein L22-like),1,inactive
CG11883,1,inactive
CG8003,1,inactive
Arp3 (Actin-related protein 3),1,inactive
CG32106,1,inactive
brv1 (brivido-1),1,inactive
brk (brinker),1,inactive
Sps1 (Selenophosphate synthetase 1),1,inactive
hry (hairy),1,inactive
CG42703,1,inactive
CG7182,1,inactive
otp (orthopedia),1,inactive
otp (orthopedia),2,inactive
Cchl (Cytochrome c heme lyase),1,inactive
CG8010,1,inactive
CG43127,1,inactive
CG6650,1,inactive
Parp1 (Poly-(ADP-ribose) polymerase 1),1,inactive
Parp1 (Poly-(ADP-ribose) polymerase 1),2,inactive
Parp1 (Poly-(ADP-ribose) polymerase 1),3,inactive
GAPcenA (GTPase activating protein and centrosome-associated),1,inactive
CG18636,1,inactive
Su(z)2 (Suppressor of zeste 2),1,inactive
CG7600,1,inactive
Gcn5 (Gcn5 acetyltransferase),1,inactive
smo (smoothened),1,inactive
PAN3 (Poly(A) specific ribonuclease subunit PAN3),1,inactive
shot (short stop),1,inactive
shot (short stop),2,inactive
shot (short stop),3,inactive
CG13989,1,inactive
Hr96 (Hormone receptor-like in 96),1,inactive
CG10435,1,inactive
CG7483,1,inactive
CG7483,2,inactive
yin,1,inactive
yin,2,inactive
mfrn (mitoferrin),1,inactive
CCKLR-17D1 (Cholecystokinin-like receptor at 17D1),1,inactive
CCKLR-17D1 (Cholecystokinin-like receptor at 17D1),2,inactive
CCKLR-17D1 (Cholecystokinin-like receptor at 17D1),3,inactive
Syt1 (Synaptotagmin 1),1,inactive
Syt1 (Synaptotagmin 1),2,inactive
Syt1 (Synaptotagmin 1),3,inactive
Syt1 (Synaptotagmin 1),4,inactive
Syt1 (Synaptotagmin 1),5,inactive
"FucTC (alpha1,3-fucosyltransferase C)",1,inactive
CG6420,1,inactive
CG14000 + bchs,1,inactive
CG4612,1,inactive
chas (chascon),1,inactive
chas (chascon),2,inactive
anchor,1,inactive
CG2260,1,inactive
Arl5 (ADP-ribosylation factor-like 5),1,inactive
Jon99Ci (Jonah 99Ci),1,inactive
AdipoR (Adiponectin receptor),1,inactive
dpr4 (defective proboscis extension response 4),1,inactive
dpr4 (defective proboscis extension response 4),2,inactive
Poxm (Pox meso),1,inactive
Poxm (Pox meso),2,inactive
CG7573,1,inactive
CG30089,1,inactive
CG30089,2,inactive
CG30089,3,inactive
CG30089,4,inactive
CG30089,5,inactive
TpnC4 (Troponin C isoform 4),1,inactive
Ced-12,1,inactive

Copied from the listing (16 entries):
gene,reagent,call
shot (short stop),1,inactive
shot (short stop),2,inactive
shot (short stop),3,inactive
CG13989,1,inactive
Hr96 (Hormone receptor-like in 96),1,inactive
CG10435,1,inactive
CG7483,1,inactive
CG7483,2,inactive
yin,1,inactive
yin,2,inactive
mfrn (mitoferrin),1,inactive
CCKLR-17D1 (Cholecystokinin-like receptor at 17D1),1,inactive
CCKLR-17D1 (Cholecystokinin-like receptor at 17D1),2,inactive
CCKLR-17D1 (Cholecystokinin-like receptor at 17D1),3,inactive
Syt1 (Synaptotagmin 1),1,inactive
Syt1 (Synaptotagmin 1),2,inactive
